Test results from PubChem BioAssay AID493014 (National Center for Advancing Translational Sciences (NCATS), 2011).
The list shows a part of the results. Shown are side measurements of this screen, not its main read-out; they come without a call. The list favours compounds with an active or inconclusive main result. The note in brackets gives the kind of curve behind each potency; many fits are weak.

Test: qHTS Assay to Find Inhibitors of Chronic Active B-Cell Receptor Signaling
Conditions: ABC-DLBCL IkBa-CBG/CBR reporter, luminescence ratio (green luciferase fused to IkBa over red control in TMD8 lymphoma cells), 4 h
Method in brief: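 Concentration-response series (up to 46 uM) were applied to TMD8 dual-reporter cells for 4 h at 37C with doxycycline. Green/red ratio, after filter-overlap correction, defined %Activity; red signal alone was normalised to basal cells and zero luminescence.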

[1] = measured here: CBR red luminescence, cell number
[2] = measured here: IkBa-CBG green luminescence

Row | Compound | AC50 [1] | AC50 [2]
1 | O=C1C(Cl)=C(Nc2ccc3cn[nH]c3c2)C(=O)c2ccccc21 | 7.08 µM [falling, partial curve, poor fit] | 7.08 µM [rising, full curve, poor fit]
2 | O=C(/C=C\Nc1ccc2c(c1)OCO2)c1cccs1 | 14.1 µM [falling, partial curve, poor fit] | 
3 | COc1ccccc1-c1ccc(NC2CCCCC2)nn1 | 2.06 µM [rising, partial curve, poor fit] | 
4 | CCC(CC)C(=O)c1c[nH]c(C(=O)NCc2ccccn2)c1 | 15.8 µM [rising, partial curve, poor fit] | 
5 | Cc1cccc(CN2C[C@]34C=C[C@@H](C[C@@H]3S2(=O)=O)O4)c1 | 5.01 µM [rising, single point] | 
6 | Cc1ccc(NC(=O)c2nn(C34CC5CC(CC(C5)C3)C4)cc2[N+](=O)[O-])cc1 | 5.62 µM [falling, partial curve] | 
7 | CN(CC(=O)N1CCN(c2ccc(F)cc2)CC1)S(=O)(=O)c1ccc(F)cc1 | 1.84 µM [rising, full curve, poor fit] | 
8 | CCOc1ccc(-c2c(=O)n(OCc3nc4ccccc4[nH]3)c3ccccc3[n+]2[O-])cc1 | 5.62 µM [rising, partial curve, poor fit] | 
9 | COC(=O)c1ccc(/C=N\NC(=O)c2ccc(C)cc2Cl)cc1 | 6.31 µM [falling, partial curve, poor fit] | 
10 | Cc1cc(N=NC(=O)c2ccccc2O)c2ccccc2c1O | 0.0891 µM [falling, full curve, poor fit] | 
11 | O=C(Nc1ccccc1Cl)c1ccccc1Cl | 0.562 µM [rising, full curve, poor fit] | 
12 | O=C(CSc1ncn[nH]1)Nc1ccc2c(c1)OCCO2 | 0.0058 µM [falling, full curve, poor fit] | 
13 | O=S(=O)(CCOc1ccccc1)N1CCOCC1 | 14.6 µM [rising, partial curve, poor fit] | 
14 | COc1ccccc1NC(=O)C/C(C)=N/NC(=O)COc1c(Br)cc(Br)cc1OC | 11.2 µM [falling, partial curve, poor fit] | 
15 | COc1ccc(-c2ccoc2)cc1[C@H]1[C@H]2C=CC[C@@H](C)[C@@H]2C(=O)N1Cc1ccccc1 | 0.398 µM [rising, full curve, poor fit] | 
16 | COC(=O)c1c(NC(=O)c2ccccc2C(=O)O)sc2c1CCC2 | 11.2 µM [falling, single point] | 
17 | O=C(CNC(=O)c1ccccc1)NCC(=O)OCC(=O)c1ccc(F)cc1 | 32.6 µM [rising, partial curve, poor fit] | 
18 | CCN(C(=O)COC(=O)CNC(=O)c1sc2ccccc2c1Cl)C1CCCCC1 | 20.6 µM [rising, partial curve] | 
19 | Cc1ccc(NC(=O)c2cc(S(=O)(=O)N3CCc4ccccc43)cn2C)cc1 | 5.01 µM [falling, partial curve, poor fit] | 
20 | C/C(=N\NC(=O)c1ccccc1)c1ccccc1Br | 16.4 µM [falling, single point] | 

By substructure, the compounds so far with bromine (2)
Row | Compound | AC50 [1] | AC50 [2]
14 | COc1ccccc1NC(=O)C/C(C)=N/NC(=O)COc1c(Br)cc(Br)cc1OC | 11.2 µM [falling, partial curve, poor fit] | 
20 | C/C(=N\NC(=O)c1ccccc1)c1ccccc1Br | 16.4 µM [falling, single point] | 

Going on with the list.

Row | Compound | AC50 [1] | AC50 [2]
21 | O=C(Nc1cccc(-c2nc3ccccc3c(=O)o2)c1)c1ccccc1 | 22.4 µM [falling, single point] | 
22 | Cc1ccc(CNC(=O)Nc2cccs2)cc1 | 0.58 µM [rising, partial curve, poor fit] | 
23 | CCN(CC)S(=O)(=O)c1ccc(NC(=O)c2ccc(N3CCCC3=O)cc2)cc1 | 4.11 µM [rising, single point] | 
24 | CCc1ccc(NC(=O)C2=CC(c3ccc(OC)c(OC)c3)=NS(=O)(=O)N2C)cc1 | 35.5 µM [falling, single point] | 
25 | Cn1c(CC(=O)Nc2ccc(Cl)c(Cl)c2)nnc1SCC(=O)NCc1ccccc1 | 1.12 µM [falling, full curve, poor fit] | 
26 | C[C@@H]1NC(=O)[C@H](CCCN=C(N)N)NC(=O)c2cc([N+](=O)[O-])cc(I)c2NCCC[C@@H](C(N)=O)NC1=O | 23.1 µM [rising, single point] | 
27 | O=C(NCCC1CCCCN1S(=O)(=O)c1ccccc1)C(=O)Nc1ccccc1 (stereo unspecified) | 6.51 µM [falling, full curve] | 
28 | CC(C)c1ccc(N2C(=O)[C@@H]3Cc4ccccc4CN3C2=O)cc1 | 0.82 µM [rising, full curve] | 
29 | Cc1noc(C)c1CSc1cc(C)c2ccccc2n1 | 12.6 µM [rising, partial curve] | 20 µM [falling, single point]
30 | CC(CN1CCOCC1)OC(=O)c1cccs1 (stereo unspecified) | 29.1 µM [rising, single point] | 
31 | O=C1/C(=C/c2cccs2)Sc2ccccc21 | 32.6 µM [falling, single point] | 
32 | CCN1C(=O)[C@H]2[C@@H](c3ccc(C)cc3)N3C(=O)N(c4cccc(Cl)c4)C(=O)[C@@]3(CC(C)C)[C@H]2C1=O | 3.66 µM [falling, partial curve, poor fit] | 
33 | NS(=O)(=O)c1ccc(NC(=O)CCc2ccccc2)cc1 | 9.2 µM [rising, partial curve, poor fit] | 
34 | COc1cccc(-c2cc(C(=O)Nc3cc(OC)c(OC)c(OC)c3)no2)c1 | 29.1 µM [falling, single point] | 
35 | COc1cc(CC(=O)NCCc2ccc(OCc3ccccc3)cc2)c([N+](=O)[O-])cc1OC | 5.8 µM [falling, full curve, poor fit] | 
36 | COc1ccccc1CC(=O)Nc1ccc([N+](=O)[O-])cc1O | 35.5 µM [falling, single point] | 
37 | CCOc1ccc2nc(SCC(=O)Nc3cc(C)on3)c(C)cc2c1 | 5.01 µM [falling, partial curve, poor fit] | 
38 | O=c1[nH]c2ccccc2n1C1CCCCC1 | 29.1 µM [rising, single point] | 
39 | CCOc1ccc(OCC)c(NC(=O)Cn2c(C)nc3ccccc3c2=O)c1 | 20 µM [falling, single point] | 
